These are yes or no findings as the source states them, for the method shown. Sequences can lack the tags named with a protein.
Target: T1, Cellular biotinylated H/ACA ribonucleoprotein complex subunit Dyskerin pseudouridine synthase 1, His6-DKC1(1-514)-AviTag (UniProt O60832)
T1 sequence (chain, biotin on the AviTag (BirA, in the cells)): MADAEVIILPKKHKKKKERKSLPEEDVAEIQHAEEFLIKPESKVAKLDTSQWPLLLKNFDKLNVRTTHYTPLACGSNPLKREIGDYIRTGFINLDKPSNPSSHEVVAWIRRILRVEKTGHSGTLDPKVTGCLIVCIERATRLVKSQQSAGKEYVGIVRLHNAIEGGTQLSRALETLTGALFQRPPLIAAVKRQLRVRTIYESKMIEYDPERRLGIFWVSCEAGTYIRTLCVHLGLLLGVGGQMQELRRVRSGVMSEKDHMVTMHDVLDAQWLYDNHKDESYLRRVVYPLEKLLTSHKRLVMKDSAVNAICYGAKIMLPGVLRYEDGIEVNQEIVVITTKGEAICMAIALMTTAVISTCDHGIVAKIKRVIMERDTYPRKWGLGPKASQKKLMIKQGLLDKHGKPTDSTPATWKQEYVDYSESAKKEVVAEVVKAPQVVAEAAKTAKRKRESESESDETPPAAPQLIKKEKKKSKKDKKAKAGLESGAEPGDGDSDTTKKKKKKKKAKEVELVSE
Experiment: SPR; cellular biotinylated His6-DKC1(1-514)-AviTag captured from soluble cell lysate (130 to 175 RU) on neutravidin-coated CM5 chip; RuvBL1/RuvBL2 complexes injected, 10 concentrations, 2-fold series from 0.05 µM; 20 mM NaKPi pH 7.5, 150 mM NaCl, 5 mM MgCl2, 1 mM DTT, 0.05% Tween 20; 25 °C; 1:1 Langmuir fit; only the binder purified

With His6-RuvBL1_ΔDII/RuvBL2_ΔDII (complex) the binding was “no binding (tested: 0.05 µM (highest concentration injected))”.

Reference: publication PMC10605449 (Biosensors, 2023)
